Measurements: patent publication US8791145B2, “Agricultural formulations with acyl morpholines and polar aprotic co-solvents” (Akzo Nobel Chemicals International B.V., priority 2010, dated 2014)
The source gives many values for each of these; only a part stands here.

Experiment: Dilution of Imidacloprid formulation in water, ocular inspection
Format: physicochemical
Design: key: +: easily dissolved; −: permanent crystals; NS: Non soluble
Details: NPM, 200 g/l diluted to 0.4 g/l
Source text: Formulations containing 200 g/l of Imidacloprid was formulated together with 40 g/l of an alcohol ethoxylate (2-propylheptanol ethoxylated with 8 moles of EO per mole of alcohol) and diluted to a final volume of one liter with each one of the solvents N-formyl morpholine, N-acetyl morpholine and N-propionyl morpholine along with a co-solvent. The co-solvents used were dimethylsulfoxide (DMSO), propylene carbonate (PC), dimethylformamide (DMF) and ethyl lactate (EL). Ethyl lactate is a protic solvent and is included in the experiment for comparison. The amount of each co-solvent, in % by weight of the total weight of morpholine and co-solvent, is seen in table 2. The solutions was diluted in water to an end concentration of imidacloprid of 0.4 g/l and the dilution was judged by ocular inspection with the naked eye, and in the table below, the following is used: • +: easily dissolved, • −: permanent crystals. • NS: Non soluble

O=[N+]([O-])NC1=NCCN1Cc1ccc(Cl)nc1 [Imidacloprid]
Crystallization upon dilution in water (0% EL): − | Crystallization upon dilution in water (5% EL): NS | Crystallization upon dilution in water (10% EL): NS | Crystallization upon dilution in water (15% EL): NS | Crystallization upon dilution in water (20% EL): NS | Crystallization upon dilution in water (25% EL): NS | Crystallization upon dilution in water (30% EL): NS | Crystallization upon dilution in water (50% EL): NS
